Screen size: about 260,000 compounds; about 1,500 (0.58%) were called active. Only results without a clear call are listed here; the source files them as inconclusive.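 The calls were made as follows: active = inhibition above a set limit at one or more doses, reproduced on every date tested; inconclusive = results disagree between test dates, or hit never tested in dose response; inactive = the rest.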 Some salts and complexes are drawn in separate pieces, as the source files them; their charges need not balance.
biological target: Virion infectivity factor (Human immunodeficiency virus type 1 group M subtype B (isolate BH10)) + Virion infectivity factor (Human immunodeficiency virus type 1 group M subtype B (isolate BRU/LAI)) + Virion infectivity factor (Human immunodeficiency virus type 1 group M subtype B (isolate PCV12)) + Virion infectivity factor (Human immunodeficiency virus type 1 group M subtype B (isolate HXB2)) + DNA dC->dU-editing enzyme APOBEC-3G (Homo sapiens) (UniProt P69720+P69721+P69722+P69723+Q9HC16); test: HIV-1 Vif–A3G interaction blockers – biochemical, TR-FRET, GST-Vif 1-94, biotin-A3G peptide, dose response retest, primary screen (AID 1117319); details: TR-FRET GST-Vif / biotin-A3G peptide binding; stronger effect = higher value;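 also: Vif residues 1-94 fused to GST binding biotinylated APOBEC3G peptide 110-148; 0% = full assay without inhibitor and 100% = GST in place of GST-Vif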

| Compound | inhibition |
| --- | --- |
| CCN(CC)CC(O)COC(=O)C(O)(c1ccccc1)C1CCCCC1 (stereo not given) | inconclusive: 42.1% |
| COc1ccc2c(c1O)-c1c(O)c(OC)cc3c1[C@H](C2)[N+](C)(C)CC3.O=[N+]([O-])c1cc([N+](=O)[O-])c([O-])c([N+](=O)[O-])c1[O-] | inconclusive: 39.6% |
| CP(=O)(Nc1ccc2c(c1)OCCO2)Oc1ccccc1 (stereo not given) | inconclusive: 35.9% |
| O=[N+]([O-])c1cc([N+](=O)[O-])c(Nc2nnnn2CCO)c([N+](=O)[O-])c1 | inconclusive: 49.9% |
| COc1ccccc1OP(C)(=O)Nc1ccc(C)cc1 (stereo not given) | inconclusive: 38.8% |

Source: PubChem BioAssay AID1117319 (Southern Research Institute, 2015)
